# Measurements published in the supplement of paper PMC8728848.
# The other results are listed elsewhere or left out.
# Tests used:
# Assay in all cases: glycan array binding signal (z-score within array); higher = stronger binding
# Conditions in all cases: glycan notation: IUPAC condensed, linker removed
# [1] = molecular target: Gal(b1-4)GlcNAc(b1-3)Gal(b1-4)GlcNAc(b1-6)[Gal(b1-3)]GalNAc
# Outline: (§1)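 The binding signal is a Z-score computed within each array. Data were drawn from 3228 arrays in the Consortium for Functional Glycomics database, restricted to those with a known protein sequence. Scores were averaged over arrays of the same protein sequence at different concentrations or buffers, and over linkers, and negative values can be taken as non-binding.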
# [2] = molecular target: Gal(b1-4)GlcNAc(b1-3)Gal(b1-4)[Fuc(a1-3)]GlcNAc(b1-3)Gal(b1-4)[Fuc(a1-3)]GlcNAc
# Outline: as §1
# [3] = molecular target: Gal(b1-4)GlcNAc(b1-3)GalNAc
# Outline: as §1
# [4] = molecular target: Gal(b1-4)GlcNAc(b1-3)[Fuc(a1-3)GlcNAc(b1-6)]Gal(b1-4)Glc
# Outline: as §1
# [5] = molecular target: Gal(b1-4)GlcNAc(b1-3)[Gal(b1-4)GlcNAc(b1-6)]Gal(b1-4)GlcNAc
# Outline: as §1
# [6] = molecular target: Gal(b1-4)GlcNAc(b1-3)[GlcNAc(b1-6)]Gal(b1-4)GlcNAc
# Outline: as §1
# [7] = molecular target: Gal(b1-4)GlcNAc(b1-6)Gal(b1-4)GlcNAc
# Outline: as §1
# [8] = molecular target: Gal(b1-4)GlcNAc(b1-6)GalNAc
# Outline: as §1
# [9] = molecular target: Gal(b1-4)GlcNAc(b1-6)[Gal(b1-3)]GalNAc
# Outline: as §1
# [10] = molecular target: Gal(b1-4)GlcNAc(b1-6)[Gal(b1-4)GlcNAc(b1-3)]GalNAc
# Outline: as §1
# [11] = molecular target: Gal(b1-4)GlcNAc6P
# Outline: as §1
# [12] = molecular target: Gal(b1-6)Gal
# Outline: as §1
# [13] = molecular target: Gal3S(b1-3)GalNAc
# Outline: as §1
# [14] = molecular target: Gal3S(b1-3)GlcNAc
# Outline: as §1
# [15] = molecular target: Gal3S(b1-3)[Fuc(a1-4)]GlcNAc
# Outline: as §1
# [16] = molecular target: Gal3S(b1-4)Glc
# Outline: as §1
# [17] = molecular target: Gal3S(b1-4)Glc6S
# Outline: as §1
# [18] = molecular target: Gal3S(b1-4)GlcNAc
# Outline: as §1
# [19] = molecular target: Gal3S(b1-4)[Fuc(a1-3)]Glc6S
# Outline: as §1
# [20] = molecular target: Gal3S(b1-4)[Fuc(a1-3)]GlcNAc
# Outline: as §1
# [21] = molecular target: Gal3S(b1-4)[Fuc(a1-3)]GlcNAc6S
# Outline: as §1
# [22] = molecular target: Gal3S4S(b1-4)GlcNAc
# Outline: as §1
# [23] = molecular target: Gal3S6S(b1-4)GlcNAc
# Outline: as §1
# [24] = molecular target: Gal3S6S(b1-4)GlcNAc6S
# Outline: as §1
# [25] = molecular target: Gal4S(b1-4)GlcNAc
# Outline: as §1
# [26] = molecular target: Gal4S6S(b1-4)GlcNAc
# Outline: as §1
# [27] = molecular target: Gal6P(b1-4)GlcNAc
# Outline: as §1
# [28] = molecular target: Gal6S(b1-3)GlcNAc
# Outline: as §1
# [29] = molecular target: Gal6S(b1-3)GlcNAc6S
# Outline: as §1
# [30] = molecular target: Gal6S(b1-4)Glc
# Outline: as §1
# [31] = molecular target: Gal6S(b1-4)Glc6S
# Outline: as §1
# [32] = molecular target: Gal6S(b1-4)GlcNAc
# Outline: as §1
# [33] = molecular target: Gal6S(b1-4)GlcNAc6S
# Outline: as §1
# [34] = molecular target: GalNAc(a1-3)Gal
# Outline: as §1
# [35] = molecular target: GalNAc(a1-3)GalNAc
# Outline: as §1
# [36] = molecular target: GalNAc(a1-3)GalNAc(b1-3)Gal(a1-4)Gal(b1-4)Glc
# Outline: as §1
# [37] = molecular target: GalNAc(a1-3)GalNAc(b1-3)Gal(a1-4)Gal(b1-4)GlcNAc
# Outline: as §1
# [38] = molecular target: GalNAc(b1-3)Gal
# Outline: as §1
# [39] = molecular target: GalNAc(b1-3)Gal(a1-4)Gal(b1-4)GlcNAc
# Outline: as §1
# [40] = molecular target: GalNAc(b1-3)Gal(a1-4)Gal(b1-4)GlcNAc(b1-3)Gal(b1-4)Glc
# Outline: as §1
# [41] = molecular target: GalNAc(b1-3)Gal(a1-6)Gal(b1-4)Glc
# Outline: as §1
# [42] = molecular target: GalNAc(b1-3)GalNAc
# Outline: as §1
# [43] = molecular target: GalNAc(b1-3)GlcNAc
# Outline: as §1
# [44] = molecular target: GalNAc(b1-4)Gal(b1-4)Glc
# Outline: as §1
# [45] = molecular target: GalNAc(b1-4)GlcNAc
# Outline: as §1
binder,measurement,setting,value
Aap lectin (Staphylococcus epidermidis) (protein) VNLNYSSPFMSLLSMPADSSSNNTKNTIDIPPTTVKGRDNYDFYGRVDIESNPTDLNATNLTRYNYGQPPGTTTAGAVQFKNQVSFDKDFDFNIRVANNRQSNTTGADGWGFMFSKKDGDDFLKNGGILREKGTPSAAGFRIDTGYYNNDPLDKIQKQAGQGYRGYGTFVKNDSQGNTSKVGSGTPSTDFLNYADNTTNDLDGKFHGQKLNNVNLKYNASNQTFTATYAGKTWTATLSELGLSPTDSYNFLVTSS,glycan array binding signal (z-score),[1],1.66
same,glycan array binding signal (z-score),[2],-0.102
same,glycan array binding signal (z-score),[3],-0.298
same,glycan array binding signal (z-score),[4],-0.493
same,glycan array binding signal (z-score),[5],-0.901
same,glycan array binding signal (z-score),[6],-0.878
same,glycan array binding signal (z-score),[7],2.52
same,glycan array binding signal (z-score),[8],-0.705
same,glycan array binding signal (z-score),[9],-0.175
same,glycan array binding signal (z-score),[10],0.093
same,glycan array binding signal (z-score),[11],-0.134
same,glycan array binding signal (z-score),[12],-0.798
same,glycan array binding signal (z-score),[13],-0.88
same,glycan array binding signal (z-score),[14],-0.699
same,glycan array binding signal (z-score),[15],-0.61
same,glycan array binding signal (z-score),[16],-0.828
same,glycan array binding signal (z-score),[17],-0.505
same,glycan array binding signal (z-score),[18],-0.43
same,glycan array binding signal (z-score),[19],1.41
same,glycan array binding signal (z-score),[20],-0.893
same,glycan array binding signal (z-score),[21],-0.886
same,glycan array binding signal (z-score),[22],-0.845
same,glycan array binding signal (z-score),[23],-0.847
same,glycan array binding signal (z-score),[24],-0.024
same,glycan array binding signal (z-score),[25],-0.121
same,glycan array binding signal (z-score),[26],-0.857
same,glycan array binding signal (z-score),[27],-0.787
same,glycan array binding signal (z-score),[28],-0.197
same,glycan array binding signal (z-score),[29],-0.9
same,glycan array binding signal (z-score),[30],-0.164
same,glycan array binding signal (z-score),[31],-0.888
same,glycan array binding signal (z-score),[32],-0.368
same,glycan array binding signal (z-score),[33],1.54
same,glycan array binding signal (z-score),[34],-0.884
same,glycan array binding signal (z-score),[35],-0.775
same,glycan array binding signal (z-score),[36],-0.571
same,glycan array binding signal (z-score),[37],0.611
same,glycan array binding signal (z-score),[38],0.081
same,glycan array binding signal (z-score),[39],1.74
same,glycan array binding signal (z-score),[40],-0.753
same,glycan array binding signal (z-score),[41],0.898
same,glycan array binding signal (z-score),[42],-0.41
same,glycan array binding signal (z-score),[43],-0.351
same,glycan array binding signal (z-score),[44],-0.556
same,glycan array binding signal (z-score),[45],-0.776

# Already shown: entries from further up.
binder,measurement,setting,value
Aap lectin (Staphylococcus epidermidis) (protein) VNLNYSSPFMSLLSMPADSSSNNTKNTIDIPPTTVKGRDNYDFYGRVDIESNPTDLNATNLTRYNYGQPPGTTTAGAVQFKNQVSFDKDFDFNIRVANNRQSNTTGADGWGFMFSKKDGDDFLKNGGILREKGTPSAAGFRIDTGYYNNDPLDKIQKQAGQGYRGYGTFVKNDSQGNTSKVGSGTPSTDFLNYADNTTNDLDGKFHGQKLNNVNLKYNASNQTFTATYAGKTWTATLSELGLSPTDSYNFLVTSS,glycan array binding signal (z-score),[10],0.093
same,glycan array binding signal (z-score),[11],-0.134
same,glycan array binding signal (z-score),[12],-0.798
same,glycan array binding signal (z-score),[13],-0.88
